# Test results as given in paper PMC7139822, “Flumazenil-Insensitive Benzodiazepine Effects in Recombinant αβ and Neuronal GABAA Receptors” (Brain Sciences, 2020).
# The chains behind the UniProt entries cited, without tags or fusion partners. Residues count along the entry.
# UniProt P20236, 29-493: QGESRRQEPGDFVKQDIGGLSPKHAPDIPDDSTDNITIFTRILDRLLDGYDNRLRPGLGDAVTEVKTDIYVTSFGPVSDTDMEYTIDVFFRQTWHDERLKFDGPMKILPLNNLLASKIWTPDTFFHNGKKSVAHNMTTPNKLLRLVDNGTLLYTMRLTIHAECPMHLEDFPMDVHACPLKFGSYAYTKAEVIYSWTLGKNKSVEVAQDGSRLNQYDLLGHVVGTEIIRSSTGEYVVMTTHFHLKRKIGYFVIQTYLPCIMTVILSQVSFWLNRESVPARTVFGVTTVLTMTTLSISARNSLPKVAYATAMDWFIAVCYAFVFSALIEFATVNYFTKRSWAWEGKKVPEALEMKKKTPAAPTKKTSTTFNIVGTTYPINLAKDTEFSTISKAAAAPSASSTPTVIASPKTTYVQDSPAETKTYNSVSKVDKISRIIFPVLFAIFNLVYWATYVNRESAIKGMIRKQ
# UniProt P63138, 26-474: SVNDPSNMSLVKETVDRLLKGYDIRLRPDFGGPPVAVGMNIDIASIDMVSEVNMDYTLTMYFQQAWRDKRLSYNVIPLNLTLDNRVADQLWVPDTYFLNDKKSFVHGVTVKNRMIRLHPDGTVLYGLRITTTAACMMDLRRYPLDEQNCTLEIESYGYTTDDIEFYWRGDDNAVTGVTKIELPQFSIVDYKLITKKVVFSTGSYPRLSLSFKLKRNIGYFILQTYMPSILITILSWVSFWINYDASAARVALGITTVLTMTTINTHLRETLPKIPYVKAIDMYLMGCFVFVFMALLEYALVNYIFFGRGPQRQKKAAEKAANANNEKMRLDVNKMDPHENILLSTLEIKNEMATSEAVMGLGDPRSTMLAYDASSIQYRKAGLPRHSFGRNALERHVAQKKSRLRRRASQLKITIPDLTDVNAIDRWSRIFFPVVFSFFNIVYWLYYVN
# UniProt P23576, 29-451: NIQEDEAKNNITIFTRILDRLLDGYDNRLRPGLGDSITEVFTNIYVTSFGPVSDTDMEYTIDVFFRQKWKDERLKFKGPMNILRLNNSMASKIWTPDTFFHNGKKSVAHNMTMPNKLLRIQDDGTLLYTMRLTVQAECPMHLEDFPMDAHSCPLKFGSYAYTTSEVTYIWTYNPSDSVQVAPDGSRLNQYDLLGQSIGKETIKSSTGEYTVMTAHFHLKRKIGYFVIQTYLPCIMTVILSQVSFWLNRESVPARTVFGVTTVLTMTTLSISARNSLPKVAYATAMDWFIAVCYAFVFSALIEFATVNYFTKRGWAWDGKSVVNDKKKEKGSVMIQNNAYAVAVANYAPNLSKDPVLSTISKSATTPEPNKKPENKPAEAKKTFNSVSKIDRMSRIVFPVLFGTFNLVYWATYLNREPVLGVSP
# UniProt P19969, 26-464: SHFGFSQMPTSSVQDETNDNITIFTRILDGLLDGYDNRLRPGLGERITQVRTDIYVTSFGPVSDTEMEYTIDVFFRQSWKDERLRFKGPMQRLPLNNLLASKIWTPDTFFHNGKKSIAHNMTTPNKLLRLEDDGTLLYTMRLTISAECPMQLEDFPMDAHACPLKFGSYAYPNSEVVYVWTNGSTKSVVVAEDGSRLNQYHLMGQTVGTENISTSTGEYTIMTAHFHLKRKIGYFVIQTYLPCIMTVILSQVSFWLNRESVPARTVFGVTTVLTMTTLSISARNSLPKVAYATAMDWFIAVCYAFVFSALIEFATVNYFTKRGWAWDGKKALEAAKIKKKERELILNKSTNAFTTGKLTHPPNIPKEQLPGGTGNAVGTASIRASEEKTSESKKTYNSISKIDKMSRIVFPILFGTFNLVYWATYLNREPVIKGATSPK
# UniProt P62813, 28-455: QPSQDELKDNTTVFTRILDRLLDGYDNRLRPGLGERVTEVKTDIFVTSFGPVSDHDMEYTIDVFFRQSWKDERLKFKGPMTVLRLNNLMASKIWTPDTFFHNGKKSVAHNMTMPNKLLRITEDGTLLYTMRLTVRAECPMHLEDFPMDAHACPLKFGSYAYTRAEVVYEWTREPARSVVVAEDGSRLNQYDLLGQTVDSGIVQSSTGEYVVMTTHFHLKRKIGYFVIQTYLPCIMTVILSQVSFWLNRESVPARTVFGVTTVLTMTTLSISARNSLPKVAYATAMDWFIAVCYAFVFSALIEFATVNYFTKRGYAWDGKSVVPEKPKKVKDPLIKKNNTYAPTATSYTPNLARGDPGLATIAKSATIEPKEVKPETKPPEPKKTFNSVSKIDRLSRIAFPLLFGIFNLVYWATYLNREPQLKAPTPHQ
# Key:
# [1] = target: T1, α3β2 receptor (Rattus norvegicus, UniProt P20236+P63138); conditions: 200 µM; positive allosteric modulator, non-classical site; co-applied with 0.5 μmol/L GABA; −60 mV; pH 7.4
# T1 construct: gene Gabra3
# [2] = target: T2, α2β2 receptor (Rattus norvegicus, UniProt P23576+P63138); conditions: 200 µM; positive allosteric modulator, non-classical site; co-applied with 1 μmol/L GABA; −60 mV; pH 7.4
# T2 construct: gene Gabra2
# [3] = target: T3, α5β2 receptor (Rattus norvegicus, UniProt P19969+P63138); conditions: 200 µM; positive allosteric modulator, non-classical site; co-applied with 0.5 μmol/L GABA; −60 mV; pH 7.4
# T3 construct: gene Gabra5
# [4] = target: α1β2 receptor (Rattus norvegicus, UniProt P62813+P63138); set-up: gene Gabra1; conditions: 200 µM; positive allosteric modulator, non-classical site; co-applied with 0.1 μmol/L GABA; −60 mV; pH 7.4
structure (smiles),measurement,setting,value
CN1C(=O)CN=C(c2ccccc2)c2cc(Cl)ccc21 [Diazepam],Potentiation of GABA Currents (%) / (Diazepam),[1],183.2 ± 21.1%
same,Potentiation of GABA Currents (%) / (Diazepam),[2],213.3 ± 26.7%
same,Potentiation of GABA Currents (%) / (Diazepam),[3],316.2 ± 75.2%
same,Potentiation of GABA Currents (%) / (Diazepam),[4],214.0 ± 31.4%
